# Some results were stated once for a whole list of compounds, not compound by compound. Some ranges recur; such a range may be that of the whole group of compounds.
# What was measured:
# Type in all cases: in vivo
# [1] = tested on: Spodoptela litura; experiment: Test Example 1: artificial diet test on tobacco cutworm larvae; conditions: 500 ppm, fourth-instar larvae, after 6 days
# [2] = tested on: Aphis gossypii; experiment: Test Example 3: spray test on cotton aphids on cucumber; conditions: 500 ppm, first-instar larvae on cucumber, after 6 days
# [3] = tested on: Adoxophyes orana; experiment: Test Example 2: artificial diet test on summer fruit tortrix larvae; conditions: 500 ppm, first-instar larvae, after 7 days
# [4] = tested on: Plutella xylostella; experiment: Test Example 9: cabbage test on diamondback, second-instar; conditions: 500 ppm, 25° C., after five days
# [5] = tested on: Culex pipiens pallens; experiment: Test Example 7: water treatment test on common mosquito larvae; conditions: concentration of active ingredient 3.5 ppm in water; last-instar larvae; after one day
# [6] = tested on: Musca domestica; experiment: Test Example 5: filter paper test on houseflies; conditions: 500 ppm, female adult houseflies, after 24 hours
SMILES,index number (mortality) [1],index number (surviving rate based on untreated check) [2],index number (mortality) [3],index number (mortality) [4],index number (mortality) [5],index number (mortality) [6]
"Clc1ccc(SC(C=CSc2ccccc2)=Nc2ccccc2)cc1Cl [(15), 3,4-Dichlorophenyl N-phenyl-3-(phenylthio)thioacrylimidate]",3 (mortality 80 to 99%),3 (surviving rate 1 to 10%),3 (mortality 80 to 99%),,,
"Clc1ccc(SC(C=CSc2ccccc2)=Nc2ccccc2)c(Cl)c1 [(19), 2,4-Dichlorophenyl N-phenyl-3-(phenylthio)thioacrylimidate]",3 (mortality 80 to 99%),3 (surviving rate 1 to 10%),3 (mortality 80 to 99%),3 (mortality 80 to 99%),4 (mortality 91 to 100%),
"C(=CC(=Nc1ccc2c(c1)OCCO2)Oc1ccccc1)Oc1ccccc1 [(86), Phenyl N-(benzo-1,4-dioxane-6-yl)-3-(phenoxy)acrylimidate]",3 (mortality 80 to 99%),,3 (mortality 80 to 99%),3 (mortality 80 to 99%),4 (mortality 91 to 100%),3 (mortality 70 to 99%)
"Cc1cc(C)cc(SC=CC(=Nc2ccccc2)Oc2ccccc2)c1 [(121), Phenyl 3-(3,5-dimethylphenylthio)-N-phenylacrylimidate]",3 (mortality 80 to 99%),,3 (mortality 80 to 99%),3 (mortality 80 to 99%),4 (mortality 91 to 100%),3 (mortality 70 to 99%)
"CC(=O)Oc1ccc(N=C(C=COc2ccccc2)Oc2ccccc2)cc1 [(155), Phenyl N-(4-acetoxyphenyl)-3-(phenoxy)acrylimidate]",,3 (surviving rate 1 to 10%),,,,
"Clc1ccc(Cl)c(OC(C=COc2ccccc2)=Nc2ccccc2)c1 [(192), 2,5-Dichlorophenyl N-phenyl-3-phenoxyacrylimidate]",,3 (surviving rate 1 to 10%),,,,
"Cc1ccc(N=C(C=CSc2ccccc2)Sc2c(Cl)cccc2Cl)cc1 [(330), 2,6-Dichlorophenyl N-(4-methylphenyl)-3-(phenylthio)thioacrylimidate]",3 (mortality 80 to 99%),3 (surviving rate 1 to 10%),,,,
"Cc1ccc(N=C(C=CSCc2ccc(F)cc2)SCC2CCCCC2)cc1 [(373), Cyclohexylmethyl 3-(4-fluorobenzylthio)-N-(4-methylphenyl)-thioacrylimidate]",3 (mortality 80 to 99%),3 (surviving rate 1 to 10%),,3 (mortality 80 to 99%),,
"COc1ccc(SC=CC(=Nc2ccc(C)cc2)SCCc2ccccc2)cc1 [(410), 1-Phenethyl 3-(4-methoxyphenylthio)-N-(4-methylphenyl)thioacrylimidate]",,3 (surviving rate 1 to 10%),,,,
"Cc1ccc(N=C(C=CSc2ccc(C)cc2C)SCCc2ccccc2)cc1 [(415), 1-Phenethyl 3-(2,4-dimethylphenylthio)-N-(4-methylphenyl)thioacrylimidate]",,3 (surviving rate 1 to 10%),,,,
"Cc1ccc(N=C(C=CSc2ccccn2)SCCc2ccccc2)cc1 [(416), 1-Phenethyl N-(4-methylphenyl)-3-(2-pyridylthio)thioacrylimidate]",,3 (surviving rate 1 to 10%),,,,
"Cc1ccc(N=C(C=CSCc2ccc(F)cc2)SCC(C)C)cc1 [(458), Isobutyl 3-(4-fluorobenzylthio)-N-(4-methylphenyl)thioacrylimidate]",3 (mortality 80 to 99%),3 (surviving rate 1 to 10%),3 (mortality 80 to 99%),3 (mortality 80 to 99%),,

# Reference: US8084644B2, “Iminopropene compound and use thereof” (Sumitomo Chemical Company, Limited, priority 2005, dated 2011)
